PubChem BioAssay AID1347423 (Functional Genomics Laboratory (NCATS/FGL), 2020)
Hit rate of the full screen: of about 52,000 sequences, about 210 (0.4%) were called active.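 How the source made its calls: active means gene whose silencing raises cell survival under the drug, median off-target-corrected z-score across its silencing RNAs 2 or more; inactive means the rest.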 The list shows a part of the results.

test: Resistance to Poly (ADP-Ribose) Polymerase inhibitor: Gene Identification via Genome-wide siRNA Screen; settings: mouse BRCA2 R2336H ES cells, olaparib, CellTiter-Glo viability; stronger effect = higher value
Procedure, shortened: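 Genome-wide siRNA screen (3 siRNAs/gene, 20 nM) in mouse ES cells carrying hypomorphic BRCA2 R2336H; olaparib 500 nM added 48 h post-transfection, CellTiter-Glo viability 72 h later. Normalized to plate-median negative control; MAD z-scores, gene median, seed-adjusted.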

| Sequence | z-score |
| --- | --- |
| GGGUAUGAGUGCAGACUAUTT against Zcchc9 | inactive: -3.34 |
| GCAUAUCACAUCCGAAUACTT against Per1 | inactive: 0.644 |
| GGCUGUGGAUCUUCUCUGUTT against Magi1 | inactive: -1.91 |
| CCCAGUUGACAGGAGACCATT against Hps6 | inactive: 0.169 |
| GCAGUGUCAAAAAGAGCCATT against G930045G22Rik | inactive: -0.207 |
| CGUAGAUGCUUCCAAGAUGTT against Ube2g2 | inactive: 1.57 |
| GGUUCACCACCUGCUACAATT against Pmf1 | inactive: 0.186 |
| CGUGGAAUGAAGAUUGUCCTT against Hsd17b12 | inactive: 0.616 |
| GGCUCAUGUAAGAUAAUUATT against Kcns3 | inactive: -0.196 |
| GGAUGUGGUGGUAUUAGACTT against 2900006B13Rik | inactive: 0.424 |
| GGUGAAAUCUCUCUGGCCUTT against Panx3 | inactive: -0.0251 |
| CGAGUGAAAGACCAUAUAATT against D330038O06 | inactive: -2.25 |
| GGUUGAAGCCAUAAAGAAATT against G22p1 | inactive: -0.478 |
| GGCUCCUAUAUACUGAUCATT against Olfr1402 | inactive: 0.0142 |
| GGAUUUGAACAUAAGUGACTT against AU040829 | inactive: -0.351 |
| GGAGAAAAGGUACGUUGUUTT against Rem1 | inactive: -0.627 |
| GGAUGUGUGCAUCACGGGUTT against 1700018B08Rik | inactive: -1.39 |
| GGAAAGUGUUUUCUCAUGATT against Bteb1 | inactive: 0.573 |
| GGUGUUUGGCUCACAAACCTT against Mmp23 | inactive: -0.252 |
| GGCAACACCAUACAGUAUATT against Adh7 | inactive: -0.841 |
| CCUGAUCAGAGUCUUAGUATT against Espl1 | inactive: -3.03 |
| GGAAUCACUGGUAUUAUCGTT against Surf1 | inactive: 1.29 |
| GCACUAUGGGUGUCAUGGUTT against 2810468K17Rik | inactive: -2.75 |
| GCAUGACAUGCAAAACUACTT against Abhd3 | inactive: 0.276 |
| GGUAUACGAACAUGUUUAUTT against Lin7c | inactive: 0.0415 |
| GCAGUUAUCAGUCGUCAAUTT against Zfp334 | inactive: -0.203 |
| GGAAAUUGGCACCAUUACUTT against Siat4a | inactive: -1.48 |
| GGCGACAAGCAACUUAUAATT against 9130411I17Rik | inactive: -0.967 |
| GGUCACUGAACUGUUGCUGTT against Trpc7 | inactive: 0.0527 |

As a working copy, part of the list above:

| Sequence | z-score |
| --- | --- |
| GCAUGACAUGCAAAACUACTT against Abhd3 | inactive: 0.276 |
| GGUAUACGAACAUGUUUAUTT against Lin7c | inactive: 0.0415 |
